{"source": "paper PMC10691163", "biological_target": "T1, TRAF2 (pXJ40-HA-TRAF2) (UniProt Q12933)", "T1 sequence": "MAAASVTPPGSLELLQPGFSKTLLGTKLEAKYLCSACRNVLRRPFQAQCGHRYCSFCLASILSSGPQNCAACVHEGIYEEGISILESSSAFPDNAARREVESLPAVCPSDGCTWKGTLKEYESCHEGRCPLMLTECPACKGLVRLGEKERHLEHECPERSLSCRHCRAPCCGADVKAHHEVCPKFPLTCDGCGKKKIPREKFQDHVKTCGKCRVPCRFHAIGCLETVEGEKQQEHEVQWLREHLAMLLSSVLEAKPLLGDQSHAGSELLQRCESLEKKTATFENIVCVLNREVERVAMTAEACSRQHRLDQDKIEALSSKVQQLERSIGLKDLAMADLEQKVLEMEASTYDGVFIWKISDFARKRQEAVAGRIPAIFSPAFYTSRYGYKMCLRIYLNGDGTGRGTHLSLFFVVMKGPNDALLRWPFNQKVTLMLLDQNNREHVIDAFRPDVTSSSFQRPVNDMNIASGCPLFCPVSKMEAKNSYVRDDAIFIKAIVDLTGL", "experiment": "co-IP; HEK-293T cells cotransfected with p3×Flag-Nsp10 and pXJ40-HA-TRAF2, cultured 36 h; lysate supernatant on anti-Flag or anti-HA magnetic beads, 3 h at room temperature, 5 washes with PBST; Western blot", "note": "Results are given in words; binding and its absence hold for the method and conditions named. Binding seen in cells or lysates may run through a third protein. Binding calls can cover weak binding; strength is not graded here. Where a sequence is shown, tags or fusion partners need not be part of it.", "data": [{"substance": "PRRSV nonstructural protein Nsp10 (p3×Flag-Nsp10)", "values": [{"measurement": "binding", "result": "binds"}]}]}
